# Measured values taken from patent US8404718B2, “Combinations of pyrazole kinase inhibitors” (Astex Therapeutics Limited, priority 2005, dated 2013).
# Sequences of proteins named here, by UniProt entry; tags and fusion partners are left off. A change or cut given only in a name is not applied to a line headed by its entry.
# UniProt P06493, whole entry: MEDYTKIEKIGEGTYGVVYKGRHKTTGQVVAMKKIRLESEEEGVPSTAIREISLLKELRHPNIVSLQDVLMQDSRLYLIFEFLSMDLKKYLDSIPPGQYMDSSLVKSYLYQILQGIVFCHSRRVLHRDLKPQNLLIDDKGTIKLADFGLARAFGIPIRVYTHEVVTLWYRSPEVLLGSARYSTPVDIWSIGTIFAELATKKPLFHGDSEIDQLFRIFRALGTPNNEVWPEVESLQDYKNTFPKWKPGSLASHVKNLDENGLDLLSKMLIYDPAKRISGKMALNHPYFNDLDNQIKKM
# UniProt P49841: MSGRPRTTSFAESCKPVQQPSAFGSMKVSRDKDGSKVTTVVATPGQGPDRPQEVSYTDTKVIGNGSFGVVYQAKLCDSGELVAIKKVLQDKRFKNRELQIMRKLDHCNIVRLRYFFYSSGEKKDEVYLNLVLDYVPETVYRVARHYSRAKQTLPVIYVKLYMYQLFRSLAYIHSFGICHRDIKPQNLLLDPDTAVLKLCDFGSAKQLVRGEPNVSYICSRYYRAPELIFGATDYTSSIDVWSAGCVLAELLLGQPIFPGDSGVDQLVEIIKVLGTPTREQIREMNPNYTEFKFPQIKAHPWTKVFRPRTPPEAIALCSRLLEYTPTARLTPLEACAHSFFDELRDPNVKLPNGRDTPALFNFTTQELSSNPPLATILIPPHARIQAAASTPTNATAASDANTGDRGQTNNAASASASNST
# Some of these results come from one statement about several compounds together.
# Biological target: Activated CDK2/CyclinA (Homo sapiens, UniProt P24941)
# Experiment: Activated CDK2/CyclinA kinase inhibitory activity assay (IC50), Example 250A
# Format: biochemical
# Details: not given
# Method: Compounds of the invention were tested for kinase inhibitory activity using the following protocol.
# (§1) The reaction is allowed to proceed for 2 to 4 hours before being stopped with an excess of ortho-phosphoric acid (5 μl at 2%).
# (§2) γ^33P-ATP which remains unincorporated into the histone H1 is separated from phosphorylated histone H1 on a Millipore MAPH filter plate. The wells of the MAPH plate are wetted with 0.5% orthophosphoric acid, and then the results of the reaction are filtered with a Millipore vacuum filtration unit through the wells. Following filtration, the residue is washed twice with 200 μl of 0.5% orthophosphoric acid. Once the filters have dried, 20 μl of Microscint 20 scintillant is added, and then counted on a Packard Topcount for 30 seconds.
row,SMILES,IC50
1,CC(C)(C)C1CCC(NC(=O)c2n[nH]cc2NC(=O)c2ccc(F)cc2)CC1 (centres unmarked) [Example 122],< 750 µM
2,CC(C)(C)C1CCC(NC(=O)c2n[nH]cc2NC(=O)c2ccc(Cl)cc2)CC1 (centres unmarked) [Example 126],< 750 µM
3,CC(C)(C)C1CCC(NC(=O)c2n[nH]cc2NC(=O)c2ccccc2)CC1 (centres unmarked) [Example 127],< 750 µM
4,CC(C)(C)C1CCC(NC(=O)c2n[nH]cc2NC(=O)c2ccc(OC(F)F)cc2)CC1 (centres unmarked) [Example 128],< 750 µM
5,CC(C)(C)C1CCC(NC(=O)c2n[nH]cc2NC(=O)c2cc(F)cc(F)c2)CC1 (centres unmarked) [Example 129],< 750 µM
6,O=C(Nc1c[nH]nc1C(=O)NC1CCNCC1)c1ccccc1 [Example 140],< 750 µM
7,O=C(Nc1c[nH]nc1C(=O)NC1CCNCC1)c1ccc(F)cc1 [Example 141],< 750 µM
8,Cc1onc(-c2ccccc2)c1C(=O)Nc1c[nH]nc1C(=O)NC1CCNCC1 [Example 146],< 750 µM
9,O=C(NCc1ccccc1)Nc1c[nH]nc1C(=O)N[C@H]1CC[C@H](O)CC1 [Example 157],< 750 µM
10,O=C(N[C@H]1CC[C@H](O)CC1)c1n[nH]cc1NC(=O)N1CCOCC1 [Example 161],< 750 µM

# Biological target: T1, CDK2/CyclinA (Homo sapiens, UniProt P24941)
# T1 construct: purchased Upstate Biotechnology
# Experiment: Measurement of CDK2 kinase inhibitory activity (IC50), Example 248
# Format: biochemical
# Details: or at least 50% inhibition of the CDK2 activity at a concentration of 10 μM
# Method: Compounds of the invention were tested for kinase inhibitory activity using either the following protocol or the activated CDK2/cyclin A kinase protocol described in Example 250.
# 1.7 μl of active CDK2/CyclinA (Upstate Biotechnology, 10 U/μl) is diluted in assay buffer (25.0 μl of 10× strength assay buffer (200 mM MOPS pH 7.2, 250 mM (3-glycerophosphate, 50 mM EDTA, 150 mM MgCl2), 11.27 μl 10 mM ATP, 2.5 μl 1M DTT, 25 μl 100 mM sodium orthovanadate, 708.53 μl H2O), and 10 μl mixed with 10 μl of histone substrate mix (60 μl bovine histone H1 (Upstate Biotechnology, 5 mg/ml), 940 μl H2O, 35 μCi γ^33P-ATP) and added to 96 well plates along with 5 μl of various dilutions of the test compound in DMSO (up to 2.5%). The reaction is allowed to proceed for 5 hours before being stopped with an excess of ortho-phosphoric acid (30 μl at 2%).
# as §2, with “dried, 25” for “dried, 20”
row,SMILES,IC50
1,O=C(NCc1ccccc1Cl)c1n[nH]cc1NC(=O)c1c(F)cccc1F [Example 91],< 20 µM
2,"O=C(Nc1ccccc1)c1n[nH]cc1-c1cccc(CO)c1 [Example 236, 4-(3-Hydroxymethyl-phenyl)-1H-pyrazole-3-carboxylic acid phenylamide]",< 20 µM

# Biological target: T2, CDK1/CyclinB (Homo sapiens, UniProt P06493)
# T2 construct: purchased Upstate Discovery
# Experiment: CDK1/CyclinB assay
# Format: biochemical
# Details: Example 250B protocol or selectivity protocol
# Method: (§3) (specific activity approx 500 cpm/pmol, concentration as required).
# as §1, §2
row,SMILES,IC50
1,O=C(NCc1ccccc1Cl)c1n[nH]cc1NC(=O)c1c(F)cccc1F [Example 91],< 20 µM

# Biological target: T3, GSK3-β (Homo sapiens, UniProt P49841)
# T3 construct: purchased Upstate Discovery
# Experiment: Inhibitory activity against glycogen synthase kinase-3 (Protocol A or B)
# Format: biochemical
# Details: either Protocol A or Protocol B; read-out: IC50 in the GSK3-B assays
# Method: The activities of the compounds of the invention as inhibitors of GSK-3 were determined using either Protocol A or Protocol B below.
# The reaction is allowed to proceed for 3 hours before being stopped with an excess of ortho-phosphoric acid (5 μl at 2%). The filtration procedure is as for Activated CDK2/CyclinA assay above.
# GSK3β (human) is diluted to a 10× working stock in 50 mM Tris pH 7.5, 0.1 mM EGTA, 0.1 mM sodium vanadate, 0.1% β-mercaptoethanol, 1 mg/ml BSA.
# as §3
row,SMILES,IC50
1,O=C(NC1CCC(O)CC1)c1n[nH]cc1NC(=O)c1c(F)cccc1F (centres unmarked) [Example 95],< 10 µM
